Measured values from PubChem BioAssay AID2685 (National Center for Advancing Translational Sciences (NCATS), 2010).
This is one part of the list. Further columns of the screen follow, without active or inactive calls. Compounds called inactive in the main read-out are mostly missing here. Words in brackets tell the shape of the fitted curve; partial curves, single points and poor fits give uncertain potencies.

Assay: qHTS Assay for Lipid Storage Modulators in Drosophila S3 Cells;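 as to cell number change: cells counted by Cell Tracker Red CMTPX staining in the red channel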
Conditions: BODIPY lipid droplet fluorescence, 18-24 h; for cell number change: measured here: cell count max response, cells fed with added oleic acid
In short: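 Laser-scanning cytometry quantifies lipid droplet accumulation (500–530 nm total intensity; droplet/cell object ratio) in oleic acid-fed (400 uM added) Drosophila S3 cells treated with a concentration series. 20 uM Triacsin C defined 100% inhibition.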

[1] = measured here: cell number channel AC50, cells fed with added oleic acid
[2] = measured here: lipid fluorescence (Fed channel) AC50, cells fed with added oleic acid

Row | Structure (SMILES) | cell number change | AC50 [1] | AC50 [2]
1 | Oc1ccccc1/C=N/NC(=S)NCCc1ccccc1 | -60.1% | 20.6 µM [falling, partial curve] | 32.6 µM [falling, single point]
2 | COc1ccc(C2(C)NC(=O)N(CC(=O)Nc3ccc(C)cc3Br)C2=O)cc1OC (centres undefined) | 0.901% |  | 11.6 µM [rising, single point]
3 | Cc1ccc(-c2cc(C(=O)Nc3nn[nH]n3)c3ccccc3n2)c(C)c1 | 2.43% |  | 0.461 µM [falling, single point]
4 | COc1ccccc1N1CCN(C(=O)c2c(-c3c(F)cccc3Cl)noc2C)CC1 | -1.1% |  | 29.1 µM [rising, single point]
5 | Cc1c(NC(=O)C(C)Sc2nccn2C)c(=O)n(-c2ccccc2)n1C (centres undefined) | -9.33% |  | 29.1 µM [falling, single point]
6 | C[C@H](OC(=O)n1ccnc1)[C@@H]1O[C@@]2(C)CCC[C@@H]1O2 | 3.25% | 3.66 µM [falling, single point] | 2.91 µM [falling, single point]
7 | CS/C(=C/[N+](=O)[O-])Nc1cccc2c1C(C)CC2(C)C (centres undefined) | 6.56% |  | 
8 | Brc1ccc2nc3c(n2c1)CCCC3 | 3.43% |  | 
9 | CCSc1nc(O)cc(=O)n1CC | 0.226% | 1.3 µM [rising, partial curve] | 1.3 µM [rising, partial curve]
10 | COc1cccc(C2CC(c3cccc(Br)c3)n3nc(N)nc3N2)c1 (centres undefined) | 45.1% | 2.91 µM [rising, partial curve] | 1.16 µM [rising, partial curve]
11 | CCN(CC)CC(C(=O)N(CC)CC)P(=O)(c1ccccc1)c1ccccc1 (centres undefined) | -26.8% | 0.58 µM [falling, full curve, poor fit] | 6.51 µM [falling, partial curve]
12 | CC(=O)c1cccc(CN2CCC(C(=O)Nc3ccc(-c4cccc(C)c4)cc3)CC2)c1 | -26.2% |  | 29.1 µM [falling, single point]
13 | CN(C)C(=O)COC(=O)/C=C/c1cn(-c2ccccc2)nc1-c1cccs1 |  | 1.46 µM [rising, partial curve] | 
14 | CCCCOc1ccc(C(=O)Nc2cccc(-n3cnnn3)c2)cc1OC | 4.96% |  | 13 µM [rising, partial curve]
15 | Cc1csc(C(=O)O)c1-n1cccc1 | -66.8% | 29.1 µM [falling, single point] | 
16 | O=C(Cc1c[nH]c2ccccc12)Nc1ccccc1N1CCOCC1 | -29.2% | 0.116 µM [rising, partial curve, poor fit] | 

2 entries from above in a different format:

| Row | Structure (SMILES) | cell number change | AC50 [1] | AC50 [2] |
| --- | --- | --- | --- | --- |
| 11 | CCN(CC)CC(C(=O)N(CC)CC)P(=O)(c1ccccc1)c1ccccc1 (centres undefined) | -26.8% | 0.58 µM [falling, full curve, poor fit] | 6.51 µM [falling, partial curve] |
| 12 | CC(=O)c1cccc(CN2CCC(C(=O)Nc3ccc(-c4cccc(C)c4)cc3)CC2)c1 | -26.2% |  | 29.1 µM [falling, single point] |
